Experimental data taken from PubChem BioAssay AID493014 (National Center for Advancing Translational Sciences (NCATS), 2011).
The list shows a part of the results. Further columns of the screen follow, without active or inactive calls. The list favours compounds with an active or inconclusive main result. Words in brackets tell the shape of the fitted curve; partial curves, single points and poor fits give uncertain potencies.

Test: qHTS Assay to Find Inhibitors of Chronic Active B-Cell Receptor Signaling
Conditions: ABC-DLBCL IkBa-CBG/CBR reporter, luminescence ratio (green luciferase fused to IkBa over red control in TMD8 lymphoma cells), 4 h
Method in brief: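 TMD8 ABC-DLBCL cells carrying doxycycline-inducible green luciferase fused to IkappaBalpha plus unfused red luciferase were exposed to compounds (up to 46 uM) for 4 hrs at 37C. Activity came from the overlap-corrected green/red luminescence ratio.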

[1] = measured here: CBR red luminescence, cell number
[2] = measured here: IkBa-CBG green luminescence

| Structure (SMILES) | AC50 [1] | AC50 [2] |
| --- | --- | --- |
| NC(=O)c1ccccc1OCC(=O)c1ccc(Cl)cc1 | 1 µM [rising, full curve] |  |
| [O-][N+]1=c2ccc(Nc3ccccc3)cc2=NC12CCCCC2 | 0.891 µM [falling, full curve, poor fit] |  |
| CCc1cc2c(=O)n(Cc3ccco3)c(SCC(=O)NCC3CCCO3)nc2s1 (stereo not given) | 14.1 µM [falling, partial curve, poor fit] |  |
| Cc1ccc(F)cc1NC(=O)c1ccc(OCC2CCCO2)cc1 (stereo not given) | 0.58 µM [falling, single point] |  |
| CN(C)c1ccc(C=Nc2ccc(N(C)C)cc2)cc1 | 1.64 µM [falling, full curve] |  |
| COC(=O)Cc1nnc(SCC(=O)Nc2ccccc2)c2ccccc12 | 3.98 µM [falling, partial curve] |  |
| Cc1onc(-c2c(Cl)cccc2Cl)c1C(=O)NC1CCCCC1 | 5.62 µM [rising, single point] |  |
| O=C1NC(Cc2ccccc2)c2nc3ccc(Cl)cc3c(=O)n2-c2cc(Cl)ccc21 (stereo not given) | 2.91 µM [rising, partial curve, poor fit] |  |
| C=CCN(c1ccc(C(=O)N2CCCC2)cc1)S(C)(=O)=O | 4.11 µM [rising, partial curve, poor fit] |  |
| Cc1ncoc1C(=O)N1CCCC(C(=O)Nc2cccc(-c3ccc(F)cc3)c2)C1 (stereo not given) | 25.1 µM [falling, single point] |  |
| COc1cccc(CC(=O)Nc2nc(-c3ccc(F)c(F)c3)cs2)c1 | 10 µM [falling, partial curve] |  |
| O=C(CCCN1C(=O)c2ccccc2C1=O)NCCCn1ccnc1 | 10 µM [rising, partial curve, poor fit] | 14.1 µM [rising, partial curve, poor fit] |
| O=C(Oc1cccc(/C=N/Nc2nc(Nc3ccccc3)nc(N3CCOCC3)n2)c1)c1ccco1 | 16.4 µM [falling, partial curve] |  |
| C/C(=N/NC(=O)CNc1ccc(C)cc1)c1ccc(Br)s1 | 9.2 µM [falling, partial curve, poor fit] |  |
| N#C/C(=C\c1coc2ccccc2c1=O)C(N)=S | 6.31 µM [falling, single point] |  |
| Cc1cccnc1NC(=O)c1ccc(Cl)c(S(=O)(=O)N2CCCCCC2)c1 | 6.31 µM [falling, single point] |  |
| O=C(OCC(=O)c1c[nH]c2ccccc12)c1cc(S(=O)(=O)N2CCOCC2)ccc1F | 23.1 µM [falling, single point] |  |
| O=C(O)c1ccc(/C=N/NC(=O)c2cc3ccccc3cc2O)cc1 | 3.66 µM [falling, full curve] |  |
| COc1ccc2cc(CO)n(C)c2c1 | 13 µM [rising, partial curve, poor fit] |  |
| CN(CC(=O)Nc1ccc(Cl)c(Cl)c1)C(=O)CNC(=O)C1CCCCC1 | 3.66 µM [falling, single point] | 6.51 µM [rising, partial curve, poor fit] |
| CCOC(=O)c1nnn(-c2nonc2N)c1CN(CC)c1ccccc1 | 6.51 µM [falling, single point] |  |
| COc1ccccc1CCC(=O)N1CCC(n2nccc2NC(=O)CC(C)C)CC1 | 4.47 µM [rising, partial curve, poor fit] |  |

Sorted by length of the SMILES (smallest number first): some entries from above.

| Structure (SMILES) | AC50 [1] | AC50 [2] |
| --- | --- | --- |
| O=C(CCCN1C(=O)c2ccccc2C1=O)NCCCn1ccnc1 | 10 µM [rising, partial curve, poor fit] | 14.1 µM [rising, partial curve, poor fit] |
| [O-][N+]1=c2ccc(Nc3ccccc3)cc2=NC12CCCCC2 | 0.891 µM [falling, full curve, poor fit] |  |
| COc1ccccc1CCC(=O)N1CCC(n2nccc2NC(=O)CC(C)C)CC1 | 4.47 µM [rising, partial curve, poor fit] |  |

(continued)

| Structure (SMILES) | AC50 [1] | AC50 [2] |
| --- | --- | --- |
| CCOc1ccc(-c2nnc3ccc(SCC(=O)Nc4cc(C)on4)nn23)cc1 | 14.1 µM [rising, single point] |  |
| CCN(C(=O)COC(=O)c1cc([N+](=O)[O-])ccc1N1CCCCC1)C1CCS(=O)(=O)C1 (stereo not given) | 15.8 µM [rising, single point] |  |
| Cc1oc2c(CN3CCCC3)c(O)ccc2c(=O)c1-c1ccccc1 | 23.1 µM [falling, single point] |  |
| COc1ccc(C(=O)c2ccc(OC)c(N)c2)cc1N | 23.1 µM [rising, single point] | 13 µM [falling, partial curve, poor fit] |
| COc1ccc(CCNC(=O)c2cc(-c3ccco3)on2)cc1OC | 7.08 µM [falling, partial curve, poor fit] |  |
| O=c1[nH]c2ccccc2nc1/C=C/c1ccc(F)cc1 | 7.94 µM [falling, partial curve, poor fit] |  |
| O=C(Nc1ccc(Cl)cc1Cl)c1cc(S(=O)(=O)N2CCCCCC2)ccc1F | 35.5 µM [rising, single point] |  |
| Cc1ccc(NC(=O)OCc2cccs2)cc1 | 14.1 µM [falling, single point] |  |
| O=[N+]([O-])c1ccccc1S(=O)(=O)NCc1ccc(F)cc1 | 6.31 µM [rising, single point] |  |
| N#Cc1ccccc1NC(=O)CSc1nccn1CCc1ccccc1 | 1.3 µM [falling, full curve] |  |
| CCCCNc1ccc(C(=O)OCCN(C)C)cc1 | 22.4 µM [rising, single point] |  |
| Cc1cc(N2CCN(C(=O)c3ccco3)CC2)nc(-c2ccccc2)n1 | 35.5 µM [falling, single point] |  |
| C#CCOc1nc2c(c(=O)n(C)c(=O)n2C)n1Cc1ccccc1 | 7.08 µM [falling, partial curve, poor fit] |  |
| COc1cccc(OCc2ccc(Cl)cc2)c1C#N | 0.398 µM [rising, partial curve, poor fit] |  |
| CCc1cccc(CC)c1NC(=O)COC(=O)c1cccc(S(=O)(=O)N2CCc3ccccc3C2)c1 | 2.91 µM [rising, full curve, poor fit] |  |
| Cc1c(CCO)c(=O)n(-c2ccccc2)n1S(=O)(=O)c1c(Cl)cc(Cl)cc1Cl | 22.4 µM [falling, single point] |  |
| COc1cc(/C=N/N=C2/SCC(=O)N2c2ccc(O)cc2)ccc1O | 35.5 µM [falling, single point] |  |
| CC(=O)NC1Sc2ccccc2N=C1c1ccccc1 (stereo not given) | 3.66 µM [rising, single point] |  |
| CCOC(=O)C(C)N1C(=O)S/C(=C/c2cc(C)n(-c3ccccn3)c2C)C1=O (stereo not given) | 7.31 µM [rising, partial curve, poor fit] | 14.6 µM [falling, partial curve] |
| CC(C)Nc1nnc(SCC(=O)N2CCN(C(=O)c3ccco3)CC2)s1 | 36.6 µM [rising, single point] |  |
| COC(=O)c1sccc1NC(=O)Cc1ccc(Br)cc1 | 9.2 µM [falling, partial curve] | 23.1 µM [rising, single point] |
| O=C(OC1CCCCC1=O)c1cccc(S(=O)(=O)NCc2ccccc2)c1 (stereo not given) | 17.8 µM [falling, partial curve, poor fit] |  |

| Structure (SMILES) | AC50 [1] | AC50 [2] |
| --- | --- | --- |
| CCN1CCN(Cc2ccc(NC(=O)c3ccc(C)c(NC(=O)c4cccc5[nH]ccc45)c3)cc2C(F)(F)F)CC1 | 0.355 µM [falling, full curve, poor fit] |  |
| O=c1c(Br)c(Br)cnn1-c1ccccc1 | 5.01 µM [falling, full curve] | 3.55 µM [rising, full curve, poor fit] |
| Cn1cnc([N+](=O)[O-])c1Oc1cccc(O)c1 | 16.4 µM [falling, single point] |  |
| COc1ccc(NC(=O)c2ccc(-c3ccc(-c4noc(C)n4)cc3C)cc2)cc1N1CCN(C)CC1 |  | 25.9 µM [falling, partial curve, poor fit] |
| CCOC(=O)Cc1csc(NC(=O)C2C3C=CC(C3)C2C(=O)O)n1 (stereo not given) | 16.4 µM [rising, single point] |  |
| Cc1[nH]c(=S)c(C#N)c(C)c1Cc1ccccc1 | 31.6 µM [rising, single point] |  |
| Cn1c(SCC(=O)Nc2nccs2)nnc1C1CC1 | 6.31 µM [falling, full curve] |  |
| COc1cccc(C(=O)Nc2cc(S(=O)(=O)N3CCCCC3)ccc2OC)c1 | 10 µM [falling, partial curve, poor fit] |  |
| Cc1cccc(C)c1NC(=O)c1cnn(-c2ccccc2)c1C | 7.08 µM [falling, partial curve] |  |
| Oc1ccc(/C=N/Nc2ccc3ccccc3c2)c(O)c1 | 4.47 µM [falling, full curve, poor fit] |  |
| CCCc1[nH]c2ccc(C#N)cc2c1CCC | 35.5 µM [falling, single point] |  |
| CN(C)c1ccc(/C=N/NC(=O)c2ccco2)cc1 | 0.92 µM [falling, full curve] |  |
| COc1cccc(/C=N/NC(=O)c2nnn(-c3nonc3N)c2CN(C)c2ccccc2)c1 | 11.2 µM [falling, single point] |  |
| COc1ccc(CS(=O)(=O)CC(C)(O)c2ccc(Cl)cc2)cc1 (stereo not given) | 12.6 µM [rising, single point] |  |
| O=C(c1cc2ncc(CCCl)cn2n1)N1CCCCCC1 | 6.51 µM [rising, partial curve, poor fit] |  |
| COc1ccc(OC)c(NC(=O)CSc2nnc(NC(=O)c3ccco3)s2)c1 | 1.12 µM [falling, partial curve] |  |
| CCOc1cccc2sc(Cl)nc12 | 0.355 µM [rising, full curve, poor fit] |  |
| COc1ccc(S(=O)(=O)N2CCN(C(=O)c3ccc4ccccc4n3)CC2)cc1 | 2.59 µM [rising, partial curve, poor fit] |  |
| C/C(Cl)=C/CSc1nn2c(=O)c3ccccc3nc2s1 | 16.4 µM [falling, single point] |  |
| C=CCN1C(=O)C(CC(=O)O)S/C1=N/N=C/c1ccc(N(CC)CC)cc1 (stereo not given) |  | 16.4 µM [falling, partial curve, poor fit] |
